PubChem BioAssay AID1224826 | NIAID | 2016

Purpose: 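Regulators of Tlr4 signalling leading to Tnf-alpha expression in macrophages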 (primary screen)
System: RAW264.7 G9 macrophages from mouse bearing reporters for p65 (GFP) and the Tnf promoter (mCherry)
Reagent: siRNA pool against mouse genes, 100 nM
Time to read-out: 16 h of LPS stimulation, after 2 days of siRNA transfection
Challenge: bacterial lipopolysaccharide (Salmonella minnesota R595), 10 ng/ml
Measured: 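Nuclear mCherry signal of the Tnf promoter reporter measured by imaging after background removal, scaled to each plate median and turned into robust z-scores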
Reading the numbers: Tnf reporter robust z-score: higher = stronger Tnf promoter reporter signal after LPS; Tnf reporter intensity: higher = stronger Tnf promoter reporter signal
Active means: 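Called active when robust z-score is at most -1.3, matching the median of the Tlr4 knock-down control, or over 3; control wells and wells with under 50 cells never active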
Meaning of the calls: active = Tnf reporter clearly lowered or raised; inactive = no clear change in Tnf reporter
This is one part, drawn at random, of about 17,000 deposited reagents. Of all reagents, about 1,110 (6.6%) are marked active. 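Active means lowered or raised reporter signal; replicate intensities are raw and not normalised per plate.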 Unmarked entries are inactive. Reagent sequences are not shown.

Target gene,PubChem SID,Tnf reporter robust z-score,fewer than 50 cells in well,"Tnf reporter intensity, replicate 1","Tnf reporter intensity, replicate 2"
Psapl1,SID315475418,,fewer than 50 cells per well; well left out of calls,149,54.1
Nae1,SID315479177,0.45,enough cells in well,189,197
Tlr2,SID315470322,-0.72,enough cells in well,132,130
Cfap69,SID315477493,-1.43 (active),enough cells in well,95.3,80.5
Ppp2r2b,SID315474647,0.84,enough cells in well,206,198
Trp73,SID315469834,0,enough cells in well,209,255
Txndc12,SID315472196,,fewer than 50 cells per well; well left out of calls,297,112
Fetub,SID315471989,-0.99,enough cells in well,119,121
Fgf1,SID315466659,-0.21,enough cells in well,244,213
En2,SID315466500,0.56,enough cells in well,254,295
Syt8,SID315471303,,fewer than 50 cells per well; well left out of calls,86.9,61
Sp4,SID315469399,-0.52,enough cells in well,225,182

4 entries already listed, arranged by “Tnf reporter intensity, replicate 1”, lowest first:
Target gene,PubChem SID,Tnf reporter robust z-score,fewer than 50 cells in well,"Tnf reporter intensity, replicate 1","Tnf reporter intensity, replicate 2"
Syt8,SID315471303,,fewer than 50 cells per well; well left out of calls,86.9,61
Fetub,SID315471989,-0.99,enough cells in well,119,121
Fgf1,SID315466659,-0.21,enough cells in well,244,213
En2,SID315466500,0.56,enough cells in well,254,295

Additional results follow:
Target gene,PubChem SID,Tnf reporter robust z-score,fewer than 50 cells in well,"Tnf reporter intensity, replicate 1","Tnf reporter intensity, replicate 2"
Mrgprg,SID315481815,2.6,enough cells in well,331,251
Adora2b,SID315465318,-0.15,enough cells in well,164,351
Adam25,SID315470173,0.13,enough cells in well,216,195
Def8,SID315470200,0.6,enough cells in well,174,236
Myo3a,SID315481995,1.7,enough cells in well,310,252
Fbxo9,SID315474251,-0.61,enough cells in well,183,150
Csnk2a2ip,SID315478336,0.98,enough cells in well,219,234
Plod2,SID315470407,-0.85,enough cells in well,91.2,94
Aqp2,SID315465479,0.33,enough cells in well,181,196
Pacsin2,SID315470265,,fewer than 50 cells per well; well left out of calls,43.2,43.6
Slc31a2,SID315469304,,fewer than 50 cells per well; well left out of calls,0,138
Cyb5b,SID315472437,0.31,enough cells in well,186,62.1
